Taken from: PubChem BioAssay AID743454 (Peter MacCallum Cancer Centre, 2014)
The whole screen tested about 18,000 reagents; below is a random part of them. Over the whole deposit, 450 (2.5%) are marked active. 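Single biological run; no consistent viability z cut-off exists, so the class columns, not z-scores, define the calls.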 A number with no mark means an inactive call.

Screen: 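Knock-downs lowering viability or raising caspase 3/7 activity in vorinostat-treated resistant cells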 (primary screen)
System: human HCT116-VR colon cancer cells, selected for vorinostat resistance
Reagents: siRNA pool against human genes, 40 nM siRNA pool
Time to read-out: vorinostat for 24 h, read-out about 72 h after transfection
Challenge: vorinostat at 2.5 µM final
Measurement: 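Two measures, CellTiter-Fluor viability and luminescent caspase 3/7 activity, each as fold change against same-plate mock wells, mean of duplicates, then screen-wide robust z-score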
Scale: viability robust z-score: higher = more viable cells than screen typical; caspase robust z-score: higher = more caspase 3/7 activity than screen typical
Rule for the call: 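Hits are knock-downs in viability class RV1/RV2 or caspase class CA1/CA2, excluding ones that killed cells in the no-drug cell-count arm; hits then retested with single siRNAs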

target gene,viability hit class,caspase hit class,viability robust z-score,caspase robust z-score
PHIP (GeneID 55023),no change,no change,-0.56,0.87
ADI1 (GeneID 55256),no change,no change,-0.96,-0.84
CHCHD10 (GeneID 400916),no change (active),CA1 (caspase activation),-0.2,5.28
TBL3 (GeneID 10607),no change,no change,-1.05,-0.33
FAM86C1P (GeneID 55199),no change,no change,-0.68,-0.74
PARP4 (GeneID 143),no change,no change,-0.18,0.14
MFSD12 (GeneID 126321),no change,no change,-1.04,-1.28
MZT2B (GeneID 80097),no change,no change,0.14,0.48
FAM241A (GeneID 132720),no change,no change,1.7,0.24
UGT2B17 (GeneID 7367),no change,no change,0.02,-0.9
SAAL1 (GeneID 113174),no change,no change,0.4,0.26
NPM2 (GeneID 10361),no change,no change,-0.07,-0.1
VKORC1L1 (GeneID 154807),no change,no change,-0.67,-0.24
BCL11B (GeneID 64919),no change,no change,-0.54,0.03
METAP1 (GeneID 23173),no change,no change,0.74,-0.68
CCL8 (GeneID 6355),no change,no change,-1.01,-0.29
CCNDBP1 (GeneID 23582),no change,no change,1.46,-0.14
CBFA2T2 (GeneID 9139),no change,no change,-0.22,-0.48
LYAR (GeneID 55646),no change,no change,-0.83,0.05
FNDC4 (GeneID 64838),no change,no change,0.84,0.96
ZNF823 (GeneID 55552),no change,no change,0.62,-0.76
PIMREG (GeneID 54478),no change,no change,1.05,-0.27
C21orf58 (GeneID 54058),no change,no change,-1.79,2.41
